These are yes or no findings as the source states them, for the method shown. Binding seen in cells or lysates may run through a third protein. Some results given as binding are weak or reduced against the parent protein; the word gives no strength.
B1: O-GlcNAc transferase (OGT), endogenous in KYSE-30 cells (enzyme, UniProt O15294 1-1046)
chain: MASSVGNVADSTEPTKRMLSFQGLAELAHREYQAGDFEAAERHCMQLWRQEPDNTGVLLLLSSIHFQCRRLDRSAHFSTLAIKQNPLLAEAYSNLGNVYKERGQLQEAIEHYRHALRLKPDFIDGYINLAAALVAAGDMEGAVQAYVSALQYNPDLYCVRSDLGNLLKALGRLEEAKACYLKAIETQPNFAVAWSNLGCVFNAQGEIWLAIHHFEKAVTLDPNFLDAYINLGNVLKEARIFDRAVAAYLRALSLSPNHAVVHGNLACVYYEQGLIDLAIDTYRRAIELQPHFPDAYCNLANALKEKGSVAEAEDCYNTALRLCPTHADSLNNLANIKREQGNIEEAVRLYRKALEVFPEFAAAHSNLASVLQQQGKLQEALMHYKEAIRISPTFADAYSNMGNTLKEMQDVQGALQCYTRAIQINPAFADAHSNLASIHKDSGNIPEAIASYRTALKLKPDFPDAYCNLAHCLQIVCDWTDYDERMKKLVSIVADQLEKNRLPSVHPHHSMLYPLSHGFRKAIAERHGNLCLDKINVLHKPPYEHPKDLKLSDGRLRVGYVSSDFGNHPTSHLMQSIPGMHNPDKFEVFCYALSPDDGTNFRVKVMAEANHFIDLSQIPCNGKAADRIHQDGIHILVNMNGYTKGARNELFALRPAPIQAMWLGYPGTSGALFMDYIITDQETSPAEVAEQYSEKLAYMPHTFFIGDHANMFPHLKKKAVIDFKSNGHIYDNRIVLNGIDLKAFLDSLPDVKIVKMKCPDGGDNADSSNTALNMPVIPMNTIAEAVIEMINRGQIQITINGFSISNGLATTQINNKAATGEEVPRTIIVTTRSQYGLPEDAIVYCNFNQLYKIDPSTLQMWANILKRVPNSVLWLLRFPAVGEPNIQQYAQNMGLPQNRIIFSPVAPKEEHVRRGQLADVCLDTPLCNGHTTGMDVLWAGTPMVTMPGETLASRVAASQLTCLGCLELIAKNRQEYEDIAVKLGTDLEYLKKVRGKVWKQRISSPLFNTKQYTMELERLYLQMWEHYAAGNKPDHMIKPVEVTESA
B2: TRIM56, endogenous in HEK-293T cells (enzyme, UniProt Q9BRZ2 1-755)
chain: MVSHGSSPSLLEALSSDFLACKICLEQLRAPKTLPCLHTYCQDCLAQLADGGRVRCPECRETVPVPPEGVASFKTNFFVNGLLDLVKARACGDLRAGKPACALCPLVGGTSTGGPATARCLDCADDLCQACADGHRCTRQTHTHRVVDLVGYRAGWYDEEARERQAAQCPQHPGEALRFLCQPCSQLLCRECRLDPHLDHPCLPLAEAVRARRPGLEGLLAGVDNNLVELEAARRVEKEALARLREQAARVGTQVEEAAEGVLRALLAQKQEVLGQLRAHVEAAEEAARERLAELEGREQVARAAAAFARRVLSLGREAEILSLEGAIAQRLRQLQGCPWAPGPAPCLLPQLELHPGLLDKNCHLLRLSFEEQQPQKDGGKDGAGTQGGEESQSRREDEPKTERQGGVQPQAGDGAQTPKEEKAQTTREEGAQTLEEDRAQTPHEDGGPQPHRGGRPNKKKKFKGRLKSISREPSPALGPNLDGSGLLPRPIFYCSFPTRMPGDKRSPRITGLCPFGPREILVADEQNRALKRFSLNGDYKGTVPVPEGCSPCSVAALQSAVAFSASARLYLINPNGEVQWRRALSLSQASHAVAALPSGDRVAVSVAGHVEVYNMEGSLATRFIPGGKASRGLRALVFLTTSPQGHFVGSDWQQNSVVICDGLGQVVGEYKGPGLHGCQPGSVSVDKKGYIFLTLREVNKVVILDPKGSLLGDFLTAYHGLEKPRVTTMVDGRYLVVSLSNGTIHIFRVRSPDS

Sequences of proteins named here, by UniProt entry; tags and fusion partners are left off. A change or cut given only in a name is not applied to a line headed by its entry.
UniProt Q86WV6: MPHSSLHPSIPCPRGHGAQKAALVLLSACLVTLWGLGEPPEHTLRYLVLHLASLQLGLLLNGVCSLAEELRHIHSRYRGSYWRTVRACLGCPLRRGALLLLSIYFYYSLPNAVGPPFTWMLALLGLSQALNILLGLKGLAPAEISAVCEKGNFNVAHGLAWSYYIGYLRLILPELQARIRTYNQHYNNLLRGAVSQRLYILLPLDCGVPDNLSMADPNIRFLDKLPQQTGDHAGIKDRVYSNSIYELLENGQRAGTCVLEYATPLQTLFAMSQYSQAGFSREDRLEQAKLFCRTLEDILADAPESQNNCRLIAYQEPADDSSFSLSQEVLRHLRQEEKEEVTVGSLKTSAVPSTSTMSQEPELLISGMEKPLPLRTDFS

Columns and labels:
[1] = target: Stimulator of interferon genes (STING), endogenous in KYSE-30 cells (human (endogenous in KYSE-30)) (UniProt Q86WV6); experiment: co-IP; endogenous STING precipitated with anti-STING antibody (abcam) and protein A/G agarose from KYSE-30 lysates (50 mM Tris-HCl pH 7.4, 150 mM NaCl, 1% NP-40, 0.1% SDS; 4 °C overnight), OGT detected by immunoblot; cells treated with poly(dA:dT) 2 μg/mL 16 h, TMG or DON
[2] = target: FLAG-tagged STING-T229A expressed in HEK-293T cells (human) (UniProt Q86WV6); experiment: co-IP; HEK-293T transfected with FLAG-tagged STING-WT or -T229A; precipitated with anti-STING antibody (abcam), TRIM56 detected by immunoblot
[3] = target: FLAG-tagged STING-WT expressed in HEK-293T cells (human) (UniProt Q86WV6); experiment: as above

Row | Binder | binding [1] | binding [2] | binding [3]
1 | B1 | binds | – | –
2 | B2 | – | binds | binds
